Data source: PubChem BioAssay AID1259405 (NCATS, 2018)
Purpose: 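Knock-downs that lift recombinant protein yield in hamster ovary cells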 (primary screen). Cell system: Chinese hamster CHO-K1 ovary cells with stable secreted eGFP expression. Knock-down reagent: single siRNA against mouse genes, 0.8 pmol siRNA per well (2 µl of 400 nM stock). Time to read-out: 3 days. Measurement: 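Per-well intracellular GFP measured by laser scanning cytometry, plus viability from ATP luminescence, each relative to plate median of non-targeting control wells, in %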. Reading the numbers: GFP, % of control: higher = more GFP per well, higher productivity; viability (ATP), % of control: higher = more viable cells (more ATP). Rule for the call: 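Called active when intracellular GFP, relative to negative control, is at or above 120%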.
This is a random part of about 50,000 deposited reagents. About 4,000 of them (8%) were called active. 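Mouse siRNA library applied to hamster cells; one well for each siRNA.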 The numbers tell different reagents against one gene apart.

Target gene,siRNA no.,"GFP, % of control","viability (ATP), % of control",Call
Madd,1,58.5,50.3,inactive
Madd,2,73.1,83.4,inactive
Madd,3,86,52.3,inactive
Fnbp4,1,43.3,45.8,inactive
Fnbp4,2,78.7,99.7,inactive
Fnbp4,3,80.2,81.4,inactive
Or9i16,1,95.6,106,inactive
Or9i16,2,81.9,86.5,inactive
Or9i16,3,97.6,97,inactive
Or4b1d,1,43.3,31.4,inactive
Or4b1d,2,191,56.9,active
Or4b1d,3,34.3,68.8,inactive
Slc52a3,1,65,78.5,inactive
Slc52a3,2,55.6,84,inactive
Slc52a3,3,54.7,68.6,inactive
AW209491,1,46.3,57.3,inactive
AW209491,2,89.5,89.1,inactive
AW209491,3,53.3,73.9,inactive
Lpin3,1,50.8,61.7,inactive
Lpin3,2,54.5,66.9,inactive
Lpin3,3,60.2,25.7,inactive
H2-M3,1,76.6,70.1,inactive
H2-M3,2,98.5,74.9,inactive
H2-M3,3,47.9,69.6,inactive
Zfp46,1,88,64.2,inactive
Zfp46,2,56.1,67.9,inactive
Zfp46,3,122,107,active
Tmprss5,1,81.6,56.1,inactive
Tmprss5,2,62.5,46.7,inactive
Tmprss5,3,72.7,76.9,inactive
Dph2,1,92.6,97.1,inactive
Dph2,2,112,90.8,inactive
Dph2,3,120,70.3,active
Tmem198,1,80.1,70.8,inactive
Tmem198,2,113,78.5,inactive
Tmem198,3,75.7,74.5,inactive
Lman1,1,55,72.2,inactive
Lman1,2,67.8,68.3,inactive
Ccnl1,1,64.4,86.4,inactive
Ccnl1,2,86.9,124,inactive
Trem5,1,72.5,64.5,inactive
Trem5,2,76,72.5,inactive
Trem5,3,93.1,82.9,inactive
4933405O20Rik,1,111,69.9,inactive
4933405O20Rik,2,79.2,77,inactive
4933405O20Rik,3,74.9,78.7,inactive
Ngdn,1,35.8,56.4,inactive
Ngdn,2,75.7,79.1,inactive
Ngdn,3,45.2,61.1,inactive
Or4c12,1,83.7,65.1,inactive
Or4c12,2,30.8,25.5,inactive
Or4c12,3,99.2,112,inactive
Lmna,1,37.8,36.9,inactive
Lmna,2,80.2,81.1,inactive
Lmna,3,49.3,57,inactive
Thoc7,1,87.5,83.2,inactive
Thoc7,2,165,64.8,active
Thoc7,3,126,57.9,active
Cnbp,1,60.2,64.1,inactive
Cnbp,2,124,86.9,active
Cnbp,3,101,95.6,inactive
Nme6,1,87.3,78.8,inactive
Prkaa1,1,146,116,active
Prkaa1,2,45,35.6,inactive
Prkaa1,3,75.3,77.5,inactive
Sirt3,1,49.6,26.7,inactive
Sirt3,2,60.4,59.4,inactive
Sirt3,3,95.9,84,inactive
Slc38a2,1,94,113,inactive
Slc38a2,2,125,81.4,active
Clp1,1,82.8,92.3,inactive
Clp1,2,89.9,68,inactive
Clp1,3,96.6,114,inactive
Tmem161a,1,90.9,76.9,inactive
Tmem161a,2,70.9,79.2,inactive
Tmem161a,3,83,88.9,inactive
Mrpl57,1,56,43.5,inactive
Mrpl57,2,97.4,82.9,inactive
Mrpl57,3,68,58.8,inactive
Tnfsf14,1,75.2,50.3,inactive
Tnfsf14,2,46.5,35.6,inactive
Tnfsf14,3,66.7,69.6,inactive
Serpinb3c,1,83.3,51.5,inactive
Serpinb3c,2,62.3,77.3,inactive
Serpinb3c,3,118,108,inactive

Limited to “viability (ATP), % of control”, for 7 of the entries above:
Fnbp4 #1 = 45.8
Fnbp4 #2 = 99.7
Fnbp4 #3 = 81.4
Or9i16 #1 = 106
Or9i16 #2 = 86.5
Or9i16 #3 = 97
Or4b1d #1 = 31.4
